Assay [1] deals with T1, Heh1-L^GFP (S. cerevisiae) (UniProt Q03707).
T1 sequence: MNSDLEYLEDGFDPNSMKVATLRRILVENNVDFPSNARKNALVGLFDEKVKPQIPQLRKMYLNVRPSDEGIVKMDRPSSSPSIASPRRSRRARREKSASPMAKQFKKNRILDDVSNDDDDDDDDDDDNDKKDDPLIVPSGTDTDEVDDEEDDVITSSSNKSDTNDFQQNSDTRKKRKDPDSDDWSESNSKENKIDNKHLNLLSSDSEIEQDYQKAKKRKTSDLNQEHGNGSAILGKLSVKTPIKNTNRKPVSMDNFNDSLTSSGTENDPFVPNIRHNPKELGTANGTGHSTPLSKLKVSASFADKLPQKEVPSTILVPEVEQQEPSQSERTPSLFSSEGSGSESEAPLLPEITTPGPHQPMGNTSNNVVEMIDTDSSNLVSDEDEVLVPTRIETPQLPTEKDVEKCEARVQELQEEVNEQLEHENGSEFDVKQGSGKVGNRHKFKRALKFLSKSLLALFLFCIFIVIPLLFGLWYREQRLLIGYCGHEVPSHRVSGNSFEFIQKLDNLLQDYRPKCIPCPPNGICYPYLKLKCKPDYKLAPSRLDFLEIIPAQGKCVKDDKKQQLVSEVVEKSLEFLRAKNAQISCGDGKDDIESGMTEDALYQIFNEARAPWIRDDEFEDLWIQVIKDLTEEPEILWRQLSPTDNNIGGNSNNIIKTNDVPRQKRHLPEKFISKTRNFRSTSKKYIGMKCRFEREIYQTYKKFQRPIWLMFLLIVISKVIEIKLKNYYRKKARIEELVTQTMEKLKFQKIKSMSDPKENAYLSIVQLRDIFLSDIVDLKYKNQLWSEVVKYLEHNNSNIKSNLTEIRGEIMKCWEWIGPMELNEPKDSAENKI
Nature of the assay: co-IP.

Assay [2] concerns the target Heh1-S^GFP (S. cerevisiae). Nature of the assay: co-IP.

No constants are given. Whether binding was seen depends on the method and setting. Binding seen in cells or lysates may run through a third protein. A result given as binding can be weak or reduced; the word gives no strength. For part of these data: Tags and fused reporters may be left off the sequences shown.

As for Heh1-S^6HA (S. cerevisiae), the binding entry in assay [1] is given as “binds”.

Consider “full-length Chm7 (co-immunoprecipitation) (S. cerevisiae)”, for which, in assay [1], the binding entry was “no binding”.

B1: Heh1-L^6HA (protein, UniProt Q03707 1-834)
chain: T1 sequence
B1: the binding result in assay [2] is reported as “binds”.

The values above are taken from doi:10.1101/2020.06.25.171694.
